# Tests used:
# [1] = general procedure: Boc solid-phase peptide synthesis; benzhydrylamino-polystyrene-divinylbenzene resin; DCC/HBT; conditions: whole synthesis, scale 1.0 mmol, HF salt
# [2] = general procedure: Boc solid-phase peptide synthesis; Boc-Pro-O-Resin (chloromethyl-polystyrene/1% divinylbenzene); DCC/HBT; conditions: whole synthesis, scale 1.4 mmol, acetic acid addition salt
Substance,crude mass [1] [g],crude mass [2] [g]
(pyro)-Glu-His-Trp-Ser-Tyr-3-(2-benzimidazolyl)-D-alanyl-Leu-Arg-Pro-Gly-NH2,0.4,–
pyro-glutamyl-histidyl-tryptophyl-seryl-tyrosyl-3-(2-benzimidazolyl)-D-alanyl-leucyl-arginyl-proline ethylamide,–,1.10

# From patent publication US4318905A (Syntex (U.S.A.) Inc., priority 1980, dated 1982)
